Experimental data published in patent US20080213860.
Numbering of substitutions follows the chain as printed. Construct, isoform or probe ends are uncertain for at least one entry. Tags and fusion partners may be left off the protein sequences shown.

Legend:
Experiment in all cases: enzyme reaction in vitro
[1] = system: T1, BsmI R409D (Bacillus stearothermophilus NUB36); settings: ds-DNA cleavage; protein in an extract; only the site is given
T1 sequence: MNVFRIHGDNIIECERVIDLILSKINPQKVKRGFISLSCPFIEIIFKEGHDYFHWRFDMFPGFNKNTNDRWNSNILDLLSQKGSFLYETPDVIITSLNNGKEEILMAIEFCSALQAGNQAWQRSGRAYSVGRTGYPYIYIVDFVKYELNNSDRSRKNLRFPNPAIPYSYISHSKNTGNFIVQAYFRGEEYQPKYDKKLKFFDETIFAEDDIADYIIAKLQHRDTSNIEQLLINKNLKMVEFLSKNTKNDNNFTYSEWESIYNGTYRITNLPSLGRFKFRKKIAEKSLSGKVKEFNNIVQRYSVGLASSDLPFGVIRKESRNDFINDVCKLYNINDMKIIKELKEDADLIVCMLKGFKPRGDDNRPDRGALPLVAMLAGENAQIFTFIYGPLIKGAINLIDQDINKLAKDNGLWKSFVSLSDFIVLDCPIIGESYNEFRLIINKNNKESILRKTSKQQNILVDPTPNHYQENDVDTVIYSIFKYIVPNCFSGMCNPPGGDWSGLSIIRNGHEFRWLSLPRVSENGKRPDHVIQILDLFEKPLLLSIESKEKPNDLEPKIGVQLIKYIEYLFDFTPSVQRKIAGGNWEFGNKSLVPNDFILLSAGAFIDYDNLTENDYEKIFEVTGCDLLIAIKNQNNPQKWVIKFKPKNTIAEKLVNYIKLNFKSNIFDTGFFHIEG

[2] = system: T2, BsmI R5D (Bacillus stearothermophilus NUB36); settings: ds-DNA cleavage; protein in an extract; only the site is given
T2 sequence: T1 sequence with R5D, D409R

[3] = system: T3, BsmI restriction endonuclease (wild-type) (Bacillus stearothermophilus NUB36); settings: linearizes pBR322 (ds-DNA cleavage); purified recombinant protein; only the site is given
T3 sequence: T1 sequence with D409R

[4] = system: T4, BsmI R222D (Bacillus stearothermophilus NUB36); settings: ds-DNA cleavage; protein in an extract; only the site is given
T4 sequence: T1 sequence with R222D, D409R

Measured: activity on this sequence

GCATTC [pBR322 supercoiled plasmid (one BsmI site)]
active: all assays above
